The list shows a part of the results.
Experiments:
Assay in all cases: log2 fold change, soluble protein after heating vs DMSO (PISA); higher = thermal stabilisation; K562 cells, 10 uM, 30 min; active = over 0.2 and 3.5 SD of the protein, either way, in both replicates (recomputed)
[1] = compound: CS(=O)(=O)c1ccc(-c2cnc(N)c(C(=O)Nc3ccccc3)n2)cc1
Summary of the method: (§1)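 Thermal stability values are relative to control samples and come from duplicates. They are expressed as log2 fold changes. For measurement, K562 cells (2×10^6 cells/mL) received 10 μM compound for 30 min, and aliquots were heated for 3 min over 48°C-58°C, pooled, and extracted at 4°C in PBS with 0.5% NP-40. Soluble protein, the supernatant after 21,000xg for 90 min, was quantified by TMTpro 16plex LC-MS/MS with equalised channel sums.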

Chains of the proteins cited; added tags and fusions are not shown. Lines headed by an entry give the natural chain unless they say otherwise; changes in a name come on top.
UniProt P11177, whole entry, looked up: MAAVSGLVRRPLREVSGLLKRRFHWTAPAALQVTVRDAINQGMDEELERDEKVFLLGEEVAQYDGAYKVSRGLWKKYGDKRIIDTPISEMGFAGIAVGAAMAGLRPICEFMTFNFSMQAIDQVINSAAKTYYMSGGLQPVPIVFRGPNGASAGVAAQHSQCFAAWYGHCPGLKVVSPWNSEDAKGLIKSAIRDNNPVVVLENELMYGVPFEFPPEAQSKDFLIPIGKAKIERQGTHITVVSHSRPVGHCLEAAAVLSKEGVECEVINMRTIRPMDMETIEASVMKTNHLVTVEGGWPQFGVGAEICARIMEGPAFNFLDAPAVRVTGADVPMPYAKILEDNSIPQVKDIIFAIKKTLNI
UniProt Q9BVG4: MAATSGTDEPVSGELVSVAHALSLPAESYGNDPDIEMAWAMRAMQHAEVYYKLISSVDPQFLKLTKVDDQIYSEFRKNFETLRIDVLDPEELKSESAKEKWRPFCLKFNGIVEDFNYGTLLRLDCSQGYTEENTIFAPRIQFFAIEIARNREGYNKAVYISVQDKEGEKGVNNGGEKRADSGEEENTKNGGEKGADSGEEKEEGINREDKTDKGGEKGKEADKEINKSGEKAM
UniProt Q9HBH1: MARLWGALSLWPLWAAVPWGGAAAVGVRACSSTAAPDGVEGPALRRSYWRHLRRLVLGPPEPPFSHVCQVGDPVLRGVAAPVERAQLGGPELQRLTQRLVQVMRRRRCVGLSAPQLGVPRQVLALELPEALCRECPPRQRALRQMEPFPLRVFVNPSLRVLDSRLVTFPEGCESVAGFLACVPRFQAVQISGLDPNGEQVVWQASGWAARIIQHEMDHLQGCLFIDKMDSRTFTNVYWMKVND
UniProt P22234: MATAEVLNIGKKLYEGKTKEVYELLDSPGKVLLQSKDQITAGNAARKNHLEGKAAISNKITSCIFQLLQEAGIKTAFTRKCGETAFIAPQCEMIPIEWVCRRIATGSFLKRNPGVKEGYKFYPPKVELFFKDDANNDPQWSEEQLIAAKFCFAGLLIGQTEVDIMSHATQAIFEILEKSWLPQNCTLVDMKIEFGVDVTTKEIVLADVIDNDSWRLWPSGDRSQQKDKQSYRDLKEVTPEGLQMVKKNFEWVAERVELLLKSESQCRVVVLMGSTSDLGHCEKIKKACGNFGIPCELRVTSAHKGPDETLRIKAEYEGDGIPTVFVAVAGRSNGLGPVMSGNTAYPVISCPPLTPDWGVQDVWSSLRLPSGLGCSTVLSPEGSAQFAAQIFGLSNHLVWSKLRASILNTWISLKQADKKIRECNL
UniProt Q96RD7, whole entry, looked up: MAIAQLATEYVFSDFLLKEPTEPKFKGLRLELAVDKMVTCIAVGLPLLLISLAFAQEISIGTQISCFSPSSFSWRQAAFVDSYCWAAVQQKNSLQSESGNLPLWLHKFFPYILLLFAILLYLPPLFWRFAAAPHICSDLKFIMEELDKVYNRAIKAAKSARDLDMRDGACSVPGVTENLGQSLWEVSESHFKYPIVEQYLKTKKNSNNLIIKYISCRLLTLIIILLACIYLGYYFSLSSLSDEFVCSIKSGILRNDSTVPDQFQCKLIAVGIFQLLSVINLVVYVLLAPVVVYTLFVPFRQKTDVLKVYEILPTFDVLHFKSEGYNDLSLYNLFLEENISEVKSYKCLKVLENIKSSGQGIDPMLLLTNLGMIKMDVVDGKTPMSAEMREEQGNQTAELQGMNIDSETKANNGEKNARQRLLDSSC
UniProt Q96AQ6: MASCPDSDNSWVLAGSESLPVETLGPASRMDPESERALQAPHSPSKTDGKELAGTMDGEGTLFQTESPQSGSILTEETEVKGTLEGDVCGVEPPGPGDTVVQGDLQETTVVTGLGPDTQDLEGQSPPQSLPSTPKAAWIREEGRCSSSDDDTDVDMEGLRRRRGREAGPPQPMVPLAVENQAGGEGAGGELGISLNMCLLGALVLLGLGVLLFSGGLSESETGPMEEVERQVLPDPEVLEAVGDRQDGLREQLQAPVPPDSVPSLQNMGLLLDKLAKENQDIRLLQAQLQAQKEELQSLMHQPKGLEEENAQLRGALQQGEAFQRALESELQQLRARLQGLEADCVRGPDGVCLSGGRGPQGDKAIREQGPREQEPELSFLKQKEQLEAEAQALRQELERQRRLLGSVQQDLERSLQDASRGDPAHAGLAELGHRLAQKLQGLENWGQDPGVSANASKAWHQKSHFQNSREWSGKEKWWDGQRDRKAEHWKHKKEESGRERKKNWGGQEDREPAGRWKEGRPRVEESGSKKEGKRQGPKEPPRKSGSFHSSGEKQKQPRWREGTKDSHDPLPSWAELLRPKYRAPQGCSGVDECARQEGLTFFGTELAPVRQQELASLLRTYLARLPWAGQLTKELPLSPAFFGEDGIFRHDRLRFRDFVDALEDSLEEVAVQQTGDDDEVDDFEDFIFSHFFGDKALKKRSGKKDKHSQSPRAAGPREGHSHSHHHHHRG
UniProt Q15154: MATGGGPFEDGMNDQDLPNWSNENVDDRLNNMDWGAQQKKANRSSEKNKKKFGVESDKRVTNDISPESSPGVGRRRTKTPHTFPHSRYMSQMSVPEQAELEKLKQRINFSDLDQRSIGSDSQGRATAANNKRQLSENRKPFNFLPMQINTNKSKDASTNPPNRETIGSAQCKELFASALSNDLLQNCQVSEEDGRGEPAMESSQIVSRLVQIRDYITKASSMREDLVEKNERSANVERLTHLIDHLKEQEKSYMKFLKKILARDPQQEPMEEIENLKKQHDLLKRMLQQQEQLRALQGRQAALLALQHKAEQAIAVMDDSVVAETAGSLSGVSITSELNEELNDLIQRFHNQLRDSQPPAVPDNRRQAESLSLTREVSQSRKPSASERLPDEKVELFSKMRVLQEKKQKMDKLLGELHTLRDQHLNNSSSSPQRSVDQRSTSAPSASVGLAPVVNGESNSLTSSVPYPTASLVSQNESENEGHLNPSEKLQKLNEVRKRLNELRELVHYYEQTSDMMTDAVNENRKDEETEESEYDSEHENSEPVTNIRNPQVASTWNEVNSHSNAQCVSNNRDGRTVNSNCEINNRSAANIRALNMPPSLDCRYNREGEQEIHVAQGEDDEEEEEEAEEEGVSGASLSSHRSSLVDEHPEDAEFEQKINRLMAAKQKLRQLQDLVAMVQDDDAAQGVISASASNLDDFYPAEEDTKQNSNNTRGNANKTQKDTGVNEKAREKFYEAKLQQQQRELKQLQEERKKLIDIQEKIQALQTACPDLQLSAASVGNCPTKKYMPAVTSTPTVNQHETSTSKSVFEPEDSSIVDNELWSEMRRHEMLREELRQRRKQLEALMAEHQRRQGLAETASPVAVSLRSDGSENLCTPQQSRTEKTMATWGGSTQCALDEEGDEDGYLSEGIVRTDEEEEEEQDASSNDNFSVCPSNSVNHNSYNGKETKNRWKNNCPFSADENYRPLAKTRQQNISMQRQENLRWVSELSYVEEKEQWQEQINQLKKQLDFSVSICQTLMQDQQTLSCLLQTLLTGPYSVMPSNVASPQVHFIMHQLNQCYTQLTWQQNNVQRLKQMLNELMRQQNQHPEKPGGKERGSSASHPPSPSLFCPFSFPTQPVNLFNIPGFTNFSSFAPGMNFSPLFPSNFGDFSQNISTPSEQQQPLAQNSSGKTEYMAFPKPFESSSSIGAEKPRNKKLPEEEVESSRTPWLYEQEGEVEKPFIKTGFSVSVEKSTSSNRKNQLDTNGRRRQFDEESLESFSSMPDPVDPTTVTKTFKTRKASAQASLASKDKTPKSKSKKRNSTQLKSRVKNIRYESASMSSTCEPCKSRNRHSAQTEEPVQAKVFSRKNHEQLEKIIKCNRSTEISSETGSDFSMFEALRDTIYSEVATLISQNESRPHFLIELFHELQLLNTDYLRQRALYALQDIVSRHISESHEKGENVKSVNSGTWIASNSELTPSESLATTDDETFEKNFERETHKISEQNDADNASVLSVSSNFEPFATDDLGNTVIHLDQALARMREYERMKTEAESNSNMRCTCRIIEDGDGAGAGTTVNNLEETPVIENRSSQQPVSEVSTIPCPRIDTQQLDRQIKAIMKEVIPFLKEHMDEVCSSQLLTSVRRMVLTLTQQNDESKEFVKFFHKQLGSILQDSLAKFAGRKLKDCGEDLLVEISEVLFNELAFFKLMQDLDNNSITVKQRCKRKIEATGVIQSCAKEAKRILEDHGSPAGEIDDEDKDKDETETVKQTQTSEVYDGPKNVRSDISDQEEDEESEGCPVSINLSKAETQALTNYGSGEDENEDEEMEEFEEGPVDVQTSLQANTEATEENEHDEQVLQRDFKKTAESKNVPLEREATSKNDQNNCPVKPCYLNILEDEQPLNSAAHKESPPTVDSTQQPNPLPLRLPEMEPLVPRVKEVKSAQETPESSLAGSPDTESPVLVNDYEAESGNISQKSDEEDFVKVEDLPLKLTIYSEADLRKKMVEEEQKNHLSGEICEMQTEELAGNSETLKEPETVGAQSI
UniProt O75459: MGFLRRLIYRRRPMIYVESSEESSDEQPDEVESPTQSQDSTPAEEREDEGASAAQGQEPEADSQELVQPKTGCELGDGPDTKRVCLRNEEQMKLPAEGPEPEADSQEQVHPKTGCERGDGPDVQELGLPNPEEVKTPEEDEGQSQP
UniProt P05166: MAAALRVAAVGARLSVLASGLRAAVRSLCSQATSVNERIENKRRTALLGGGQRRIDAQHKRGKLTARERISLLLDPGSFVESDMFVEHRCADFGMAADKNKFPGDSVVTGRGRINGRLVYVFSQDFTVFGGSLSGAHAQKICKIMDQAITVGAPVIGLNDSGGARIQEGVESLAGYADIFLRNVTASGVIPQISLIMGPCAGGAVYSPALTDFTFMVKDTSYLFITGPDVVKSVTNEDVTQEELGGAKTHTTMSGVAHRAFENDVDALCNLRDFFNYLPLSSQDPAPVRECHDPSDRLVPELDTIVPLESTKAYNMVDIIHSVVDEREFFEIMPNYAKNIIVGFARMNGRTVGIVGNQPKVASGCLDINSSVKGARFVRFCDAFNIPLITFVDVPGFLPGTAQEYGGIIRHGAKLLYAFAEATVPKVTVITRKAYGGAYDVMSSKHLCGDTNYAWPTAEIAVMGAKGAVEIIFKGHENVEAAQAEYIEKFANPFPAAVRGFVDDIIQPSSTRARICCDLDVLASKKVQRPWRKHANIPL
UniProt P30086: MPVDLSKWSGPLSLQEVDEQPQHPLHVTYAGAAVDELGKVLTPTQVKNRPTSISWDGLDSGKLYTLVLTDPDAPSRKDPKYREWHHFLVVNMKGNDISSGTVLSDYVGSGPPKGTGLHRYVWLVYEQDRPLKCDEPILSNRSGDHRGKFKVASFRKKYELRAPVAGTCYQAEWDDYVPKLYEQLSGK
UniProt Q9H074: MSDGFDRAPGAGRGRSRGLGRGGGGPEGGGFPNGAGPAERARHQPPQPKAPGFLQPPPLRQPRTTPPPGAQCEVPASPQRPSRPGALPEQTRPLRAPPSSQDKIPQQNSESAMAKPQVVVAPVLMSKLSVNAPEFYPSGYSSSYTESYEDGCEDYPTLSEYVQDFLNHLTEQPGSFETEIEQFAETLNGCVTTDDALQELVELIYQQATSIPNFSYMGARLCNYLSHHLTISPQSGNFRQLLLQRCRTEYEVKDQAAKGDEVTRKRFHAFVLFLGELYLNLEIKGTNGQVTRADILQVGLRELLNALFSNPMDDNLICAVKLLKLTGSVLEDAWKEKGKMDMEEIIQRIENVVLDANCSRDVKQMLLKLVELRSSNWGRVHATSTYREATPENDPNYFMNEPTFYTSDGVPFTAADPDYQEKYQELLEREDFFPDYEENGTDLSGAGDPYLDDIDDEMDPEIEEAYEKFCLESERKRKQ
UniProt Q9UHG3: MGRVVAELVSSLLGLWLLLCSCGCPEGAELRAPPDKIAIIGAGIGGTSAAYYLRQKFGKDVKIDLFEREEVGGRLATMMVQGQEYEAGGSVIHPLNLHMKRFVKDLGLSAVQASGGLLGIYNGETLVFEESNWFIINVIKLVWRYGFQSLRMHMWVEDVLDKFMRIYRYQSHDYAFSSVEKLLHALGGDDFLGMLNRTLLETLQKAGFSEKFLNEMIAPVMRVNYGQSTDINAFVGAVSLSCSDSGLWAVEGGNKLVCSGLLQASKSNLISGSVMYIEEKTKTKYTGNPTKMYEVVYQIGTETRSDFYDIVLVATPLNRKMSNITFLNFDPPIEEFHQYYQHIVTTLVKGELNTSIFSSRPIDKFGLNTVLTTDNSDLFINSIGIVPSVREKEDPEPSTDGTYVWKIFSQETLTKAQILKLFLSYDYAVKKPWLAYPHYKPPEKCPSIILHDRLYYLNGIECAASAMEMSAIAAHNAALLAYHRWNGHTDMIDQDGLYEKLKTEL
UniProt Q96GU1: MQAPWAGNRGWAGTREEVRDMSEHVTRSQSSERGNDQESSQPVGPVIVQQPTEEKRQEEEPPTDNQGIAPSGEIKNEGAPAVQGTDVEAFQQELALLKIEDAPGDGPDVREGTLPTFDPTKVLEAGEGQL

crizotinib = compound: C[C@@H](Oc1cc(-c2cnn(C3CCNCC3)c2)cnc1N)c1c(Cl)ccc(F)c1Cl [crizotinib]
Summary of the method: as §1

[2] = compound: C[C@@H]1COCCN1C2=NC(=NC(=C2)C3(CC3)S(=O)(=O)C)C4=C5C=CNC5=CC=C4
Summary of the method: as §1

[3] = compound: C[C@H](C1=CC=C(C=C1)C(=O)NC2=C3C=CNC3=NC=C2)N
Summary of the method: as §1

duvelisib = compound: C[C@H](Nc1ncnc2nc[nH]c12)c1cc2cccc(Cl)c2c(=O)n1-c1ccccc1 [duvelisib]
Summary of the method: as §1

gandotinib = compound: Cc1cc(Nc2cc(CN3CCOCC3)c3nc(C)c(Cc4ccc(Cl)cc4F)n3n2)n[nH]1 [gandotinib]
Summary of the method: as §1

tozasertib = compound: Cc1cc(Nc2cc(N3CCN(C)CC3)nc(Sc3ccc(NC(=O)C4CC4)cc3)n2)n[nH]1 [tozasertib]
Summary of the method: as §1

[4] = compound: Cc1cc(SCc2sc(-c3ccc(C(F)(F)F)cc3)nc2C)ccc1OCC(=O)O
Summary of the method: as §1

doramapimod = compound: Cc1ccc(-n2nc(C(C)(C)C)cc2NC(=O)Nc2ccc(OCCN3CCOCC3)c3ccccc23)cc1 [doramapimod]
Summary of the method: as §1

ispinesib = compound: Cc1ccc(C(=O)N(CCCN)[C@@H](c2nc3cc(Cl)ccc3c(=O)n2Cc2ccccc2)C(C)C)cc1 [ispinesib]
Summary of the method: as §1

bafetinib = compound: Cc1ccc(NC(=O)c2ccc(CN3CC[C@H](N(C)C)C3)c(C(F)(F)F)c2)cc1Nc1nccc(-c2cncnc2)n1 [bafetinib]
Summary of the method: as §1

[5] = compound: Cc1cccc(CC(=O)N2CCc3c2ccc(-c2cn(C)c4ncnc(N)c24)c3F)n1
Summary of the method: as §1

nilotinib = compound: Cc1cn(-c2cc(NC(=O)c3ccc(C)c(Nc4nccc(-c5cccnc5)n4)c3)cc(C(F)(F)F)c2)cn1 [nilotinib]
Summary of the method: as §1

[6] = compound: Cc1nc(Nc2n[nH]c3c2CN(C(=O)N[C@H](CN(C)C)c2ccccc2)C3(C)C)c2sccc2n1
Summary of the method: as §1

dasatinib = compound: Cc1nc(Nc2ncc(C(=O)Nc3c(C)cccc3Cl)s2)cc(N2CCN(CCO)CC2)n1 [dasatinib]
Summary of the method: as §1

[7] = compound: Cc1ncc(-c2ccnc(Nc3ccc(S(C)(=O)=O)cc3)n2)n1C(C)C
Summary of the method: as §1

[8] = compound: Cn1cc(-c2ccc3c(c2)CCN3C(=O)Cc2cccc(C(F)(F)F)c2)c2c(N)ncnc21
Summary of the method: as §1

[9] = compound: Cn1cc(-c2ccc3nnc(C(F)(F)c4ccc5ncccc5c4)n3n2)cn1
Summary of the method: as §1

tipifarnib = compound: Cn1cncc1[C@@](N)(c1ccc(Cl)cc1)c1ccc2c(c1)c(-c1cccc(Cl)c1)cc(=O)n2C [tipifarnib]
Summary of the method: as §1

mubritinib = compound: FC(F)(F)c1ccc(/C=C/c2nc(COc3ccc(CCCCn4ccnn4)cc3)co2)cc1 [mubritinib]
Summary of the method: as §1

Measured: log2 fold change

PDHB (UniProt P11177)
inactive: [1] 0.057 | crizotinib -0.047 | [2] -0.129 | [3] 0.143 | duvelisib -0.061 | gandotinib 0.024 | tozasertib 0.064 | [4] 0.194 | doramapimod 0.091 | ispinesib -0.174 | bafetinib 0.188 | [5] 0.075 | nilotinib -0.001 | [6] 0.17 | dasatinib -0.001 | [7] -0.024 | [8] -0.074 | [9] 0.057 | tipifarnib 0.096 | mubritinib 0.12

PAK2 (UniProt Q13177)
inactive: [1] 0.027 | crizotinib 0.061 | [2] 0.044 | [3] -0.045 | duvelisib 0.019 | gandotinib 0.004 | tozasertib 0.024 | [4] -0.002 | doramapimod -0.049 | ispinesib 0.075 | bafetinib -0.043 | [5] -0.006 | nilotinib 0.04 | [6] 0.002 | dasatinib -0.008 | [7] 0.02 | [8] 0 | [9] 0.047 | tipifarnib -0.005 | mubritinib 0.027

PBDC1 (UniProt Q9BVG4)
inactive: [1] 0.002 | crizotinib -0.043 | [2] 0.007 | [3] 0.038 | duvelisib 0.008 | gandotinib -0.104 | tozasertib 0.03 | [4] 0.041 | doramapimod 0.019 | ispinesib 0.002 | bafetinib -0.052 | [5] -0.084 | nilotinib -0.075 | [6] 0.002 | dasatinib -0.062 | [7] -0.047 | [8] 0.039 | [9] 0.016 | tipifarnib -0.103 | mubritinib 0.008

PDF (UniProt Q9HBH1)
inactive: [1] 0.014 | crizotinib -0.033 | [2] -0.022 | [3] -0.026 | duvelisib 0.041 | gandotinib 0.033 | tozasertib 0.03 | [4] 0.001 | doramapimod -0.008 | ispinesib -0.147 | bafetinib -0.146 | [5] -0.02 | nilotinib -0.006 | [6] -0.004 | dasatinib -0.018 | [7] 0.111 | [8] -0.01 | [9] 0.033 | tipifarnib 0.055 | mubritinib -0.011

PACRGL (UniProt Q8N7B6)
inactive: [1] -0.074

PAICS (UniProt P22234)
inactive: [1] 0.019 | crizotinib 0.008 | [2] 0.027 | [3] -0.023 | duvelisib 0.016 | gandotinib 0.019 | tozasertib -0.046 | [4] -0.034 | doramapimod -0.017 | ispinesib 0.003 | bafetinib 0.003 | [5] -0.046 | nilotinib 0.005 | [6] 0.001 | dasatinib 0.048 | [7] -0.022 | [8] 0.016 | [9] -0.011 | tipifarnib 0.025 | mubritinib 0.018

PASK (UniProt Q96RG2)
inactive: [1] 0.037 | crizotinib -0.014 | [2] 0.024 | [3] 0.011 | duvelisib -0.003 | gandotinib -0.059 | tozasertib -0.009 | [4] -0.013 | doramapimod -0.026 | ispinesib -0.001 | bafetinib 0.001 | [5] 0.034 | nilotinib -0.024 | [6] -0.01 | dasatinib -0.068 | [7] -0.031 | [8] 0.013 | [9] -0.035 | tipifarnib -0.062 | mubritinib 0.068

PANX1 (UniProt Q96RD7)
inactive: [1] -0.014 | crizotinib 0.084 | [2] 0.084 | [3] -0.137 | duvelisib 0.095 | gandotinib -0.016 | tozasertib -0.024 | [4] 0.017 | doramapimod 0 | ispinesib 0.053 | bafetinib -0.038 | [5] -0.003 | nilotinib 0.054 | [6] 0.019 | dasatinib 0.045 | [7] -0.01 | [8] 0.034 | [9] -0.037 | tipifarnib -0.009 | mubritinib 0.037

PBXIP1 (UniProt Q96AQ6)
inactive: [1] 0.008 | crizotinib 0.031 | [2] -0.012 | [3] 0.034 | duvelisib -0.015 | gandotinib -0.003 | tozasertib 0.021 | [4] 0.067 | doramapimod 0.045 | ispinesib -0.011 | bafetinib 0.032 | [5] -0.034 | nilotinib -0.004 | [6] 0.024 | dasatinib 0.062 | [7] -0.005 | [8] -0.025 | [9] 0.085 | tipifarnib 0.018 | mubritinib 0.016

PCM1 isoform 5 (UniProt Q15154)
inactive: [1] 0.041 | crizotinib -0.041 | [2] -0.141 | [3] 0.246 | duvelisib -0.082 | gandotinib 0.08 | tozasertib 0.04 | [4] 0.063 | doramapimod 0.082 | ispinesib -0.081 | bafetinib -0.008 | [5] 0.004 | nilotinib -0.202 | [6] -0.033 | dasatinib 0.019 | [7] -0.056 | [8] -0.19 | [9] -0.089 | tipifarnib 0.049 | mubritinib -0.11

PAGE1 (UniProt O75459)
inactive: [1] 0.014 | crizotinib 0.01 | [2] -0.101 | [3] 0.031 | duvelisib -0.073 | gandotinib 0.089 | tozasertib -0.07 | [4] -0.089 | doramapimod 0 | ispinesib 0.174 | bafetinib -0.126 | [5] -0.078 | nilotinib 0.011 | [6] -0.074 | dasatinib 0.125 | [7] -0.04 | [8] -0.076 | [9] -0.129 | tipifarnib 0.115 | mubritinib 0.027

PAFAH1B1 (UniProt P43034)
inactive: [1] 0.025 | crizotinib 0.032 | [2] 0.026 | [3] -0.112 | duvelisib 0.03 | gandotinib -0.016 | tozasertib -0.025 | [4] -0.02 | doramapimod -0.04 | ispinesib 0.029 | bafetinib -0.037 | [5] 0.007 | nilotinib -0.016 | [6] 0.016 | dasatinib 0.009 | [7] -0.002 | [8] 0 | [9] 0.011 | tipifarnib -0.006 | mubritinib 0.018

PCCB isoform 2 (UniProt P05166)
inactive: [1] 0.013 | crizotinib 0.011 | [2] 0.065 | [3] -0.013 | duvelisib 0.042 | gandotinib 0.016 | tozasertib 0.025 | [4] 0.022 | doramapimod -0.002 | ispinesib 0.01 | bafetinib 0.031 | [5] 0.017 | nilotinib 0.012 | [6] 0.029 | dasatinib -0.056 | [7] -0.083 | [8] -0.025 | [9] 0.03 | tipifarnib -0.011 | mubritinib 0.128

PEBP1 (UniProt P30086)
inactive: [1] 0.004 | crizotinib 0.057 | [2] -0.028 | [3] -0.057 | duvelisib 0 | gandotinib 0.057 | tozasertib -0.018 | [4] -0.036 | doramapimod -0.016 | ispinesib 0.036 | bafetinib -0.043 | [5] -0.003 | nilotinib 0.02 | [6] -0.004 | dasatinib 0.039 | [7] 0.005 | [8] 0.014 | [9] 0.049 | tipifarnib -0.016 | mubritinib 0.018

PAIP1 (UniProt Q9H074)
inactive: [1] -0.004 | crizotinib -0.039 | [2] -0.013 | [3] -0.022 | duvelisib 0.007 | gandotinib 0.001 | tozasertib 0.01 | [4] 0.019 | doramapimod 0.016 | ispinesib -0.023 | bafetinib -0.044 | [5] -0.034 | nilotinib -0.004 | [6] 0.008 | dasatinib -0.005 | [7] 0.042 | [8] 0.011 | [9] 0.04 | tipifarnib -0.022 | mubritinib 0.048

Reprinted at random: 2 entries already listed, in no set order.
PBXIP1 (UniProt Q96AQ6)
inactive: [1] 0.008 | crizotinib 0.031 | [2] -0.012 | [3] 0.034 | duvelisib -0.015 | gandotinib -0.003 | tozasertib 0.021 | [4] 0.067 | doramapimod 0.045 | ispinesib -0.011 | bafetinib 0.032 | [5] -0.034 | nilotinib -0.004 | [6] 0.024 | dasatinib 0.062 | [7] -0.005 | [8] -0.025 | [9] 0.085 | tipifarnib 0.018 | mubritinib 0.016

PDF (UniProt Q9HBH1)
inactive: [1] 0.014 | crizotinib -0.033 | [2] -0.022 | [3] -0.026 | duvelisib 0.041 | gandotinib 0.033 | tozasertib 0.03 | [4] 0.001 | doramapimod -0.008 | ispinesib -0.147 | bafetinib -0.146 | [5] -0.02 | nilotinib -0.006 | [6] -0.004 | dasatinib -0.018 | [7] 0.111 | [8] -0.01 | [9] 0.033 | tipifarnib 0.055 | mubritinib -0.011

More records follow:

PCYOX1 (UniProt Q9UHG3)
inactive: [1] -0.031 | crizotinib 0.03 | [2] 0.001 | [3] -0.017 | duvelisib -0.018 | gandotinib -0.065 | tozasertib 0.028 | [4] -0.046 | doramapimod 0.058 | ispinesib 0.114 | bafetinib 0.057 | [5] -0.001 | nilotinib 0.085 | [6] 0.071 | dasatinib 0.057 | [7] -0.019 | [8] -0.123 | [9] 0.004 | tipifarnib -0.019 | mubritinib -0.021

PAGE5 (UniProt Q96GU1)
inactive: [1] -0.09 | crizotinib 0.135 | [2] 0.16 | [3] -0.034 | duvelisib 0.423 | gandotinib 0.22 | tozasertib 0.08 | [4] -0.091 | doramapimod -0.128 | ispinesib 0.202 | bafetinib -0.099 | [5] -0.218 | nilotinib 0.029 | [6] -0.093 | dasatinib 0.032 | [7] -0.054 | [8] 0.204 | [9] 0.145 | tipifarnib 0.504 | mubritinib 0.002
